Source: PubChem BioAssay (NCATS)
This list was built around the results that the source calls inconclusive (neither active nor inactive); the mix of calls is not that of the screen. Potencies of inconclusive entries are doubtful fits and often do not repeat. Active and inactive are the calls of the source. Calls follow the shape of the dose curve; as a rule, active = well fitted cell-killing curve with a large enough effect; inconclusive = small, poorly fitted or top-dose-only effect, or effect the other way; inactive = no such curve, though single readings can be large or run the other way.

assay: Quantitative High-Throughput drug screen in 47 multiple myeloma cell lines against the NCATS MIPE library collection: KHM11_PLB cell viability assay (AID 1918962); details: KHM11 myeloma cell viability, CellTiter-Glo ATP luminescence, 48 h; viability, % of DMSO control: at 45.8 µM (top of the series); also: nearly all actives have a fitted effect of over 35% in size
Text: PI: Beverly A. Mock Ph.D.
Laboratory of Cancer Biology and Genetics,
Center for Cancer Research, National Cancer Institute,
National Institute of Health, Bethesda, Maryland
Drug resistance and disease progression are common in multiple myeloma (MM) patients, underscoring the need for new therapeutic combinations. […] We hypothesized that effective combinations would reduce MYC expression and enhance p16 activity. […] These preclinical data identify potentially useful drug combinations for evaluation in drug-resistant MM and reveal potential mechanisms of combined drug sensitivity.
Described herein is the primary MIPE qHTS used to cherrypick compounds. Validated compounds were then further tested for potential synergistic activiy.
[1] Peat TJ, Gaikwad SM, Dubois W, Gyabaah-Kessie N, Zhang S, Gorjifard S, Phyo Z, Andres M, Hughitt VK, Simpson RM, Miller MA, Girvin AT, Taylor A, Williams D, D'Antonio N, Zhang Y, Rajagopalan A, Flietner E, Wilson K, Zhang X, Shinn P, Klumpp-Thomas C, McKnight C, Itkin Z, Chen L, Kazandijian D, Zhang J, Michalowski AM, Simmons JK, Keats J, Thomas CJ, Mock BA. Drug combinations identified by high-throughput screening promote cell cycle transition and upregulate Smad pathways in myeloma. Cancer Lett. 2023 Aug 1;568:216284. doi: 10.1016/j.canlet.2023.216284. Epub 2023 Jun 24. PMID: 37356470; PMCID: PMC10408729.
SEQUENCE No. (e.g., 1, 2, 3, etc.); […] (e.g., Cells, Incubation, Reagent, etc.); VALUE and DESCRIPTION.
1; Cells; 5 uL; white, solid bottom 1536-well Greiner assay plate.
2; Compounds; 23 nL; Kalypsis pin tool (Wako USA) equipped with a 1536-well pin head to transfer to the assay plates.
3; Incubation; 48 hours; 37C incubation.
4; Reagent;5uL; CellTiter Glo (Promega).
5; Detector; 425V; Luminescence; Viewlux PerkinElmer.
NOTES (numbers refer to Sequence numbers above)
1. The cell-based screening methods employed in this study were like those previously published. Briefly, the corresponding myeloma cell lines were screened in 1,536-well plates with 500 cells, 5-uL per well for inhibition of cell viability (assessed by measuring ATP levels with CellTiterGlo).
2. NCATS MIPE 4.0 library of approved and investigational drugs were added using the Kalypsis pin tool. Wells treated with DMSO only for 100% viability and media only wells for 0% viability were used as controls.
3. The assay plates were covered and incubated for 48 hours in a 37C, 5% CO2 incubator with controlled humidity.
4. After 48 hours, CellTilter-GloTM luminescent substrate mix (Promega) reagent was added to the assay plate and plates we incubated for 5 min at room temperature.
5. Signal was measured as median relative luminescence units on a ViewLux (PerkinElmer) multiplate reader.
[1] Heske CM, Davis MI, Baumgart JT, Wilson K, Gormally MV, Chen L, Zhang X, Ceribelli M, Duveau DY, Guha R, Ferrer M, Arnaldez FI, Ji J, Tran HL, Zhang Y, Mendoza A, Helman LJ, Thomas CJ. Matrix Screen Identifies Synergistic Combination of PARP Inhibitors and Nicotinamide Phosphoribosyltransferase (NAMPT) Inhibitors in Ewing Sarcoma. Clin Cancer Res. 2017 Dec 1;23(23):7301-7311. doi: 10.1158/1078-0432.CCR-17-1121. Epub 2017 Sep 12. PMID: 28899971; PMCID: PMC6636827.
Potency is read from the fitted curve at half-maximal effect.

Structure (SMILES) | Potency | viability, % of DMSO control
C[C@]12CC[C@H]3[C@@H](CC[C@@]45O[C@H]4C(O)=C(C#N)C[C@]35C)[C@H]1CC[C@H]2O | inconclusive: 2.6 nM [rising, full curve, poor fit] | –
C[C@@H]1O[C@@H](O[C@@H]2C=C3CC[C@@H]4[C@@H](CC[C@]5(C)[C@H](c6ccc(=O)oc6)CC[C@@]45O)[C@@]3(C)CC2)[C@H](O)[C@H](O)[C@H]1O | active: 29.6 nM | –
CC(C)[C@]12O[C@@H]1[C@@H]1O[C@]13[C@]1(O[C@H]1C[C@@H]1C4=C(CC[C@@]13C)C(=O)OC4)[C@H]2O | inactive | –
O=C1C=CC[C@@H]2[C@H]3CCCN4CCC[C@@H](CN12)[C@@H]34 | inconclusive: 26400 nM [cytotoxic, single point] | –
C[C@]12Cc3cn[nH]c3C[C@@H]1CC[C@@H]1[C@H]2CC[C@@]2(C)[C@H]1CC[C@]2(C)O | inconclusive: 3.3 nM [cytotoxic, full curve, poor fit] | –
C[C@]12CC[C@H]3[C@@H](CCC4=CC(=O)CC[C@@]43C)[C@H]1CC[C@H]2OC(=O)CCC1CCCC1 | inconclusive: 26400 nM [cytotoxic, single point] | –
O=C(N[C@@H](COc1ccc2[nH]c(=O)[nH]c2c1)c1ccccc1)c1cccn(Cc2ccc(F)c(F)c2)c1=O | inconclusive: 5900 nM [cytotoxic, partial curve] | –
CCN1C[C@]2(OC(=O)c3ccccc3NC(C)=O)CC[C@H](OC)[C@@]34[C@H]5CC6[C@@H](OC)C[C@](O)(C(C[C@@H]23)[C@@H]14)[C@@]5(O)[C@@H]6OC | inconclusive: 1480 nM [rising, full curve] | –
CN1C(=O)COc2c(C(=O)NC3CN4CCC3CC4)cc(Cl)cc21 (stereo not given) | inactive | –
C1=C2CCCN[C@H]2[C@@H]2C[C@H]1[C@@H]1CCCCN1C2 | inactive | –
C[C@]12CC[C@@H]3[C@@H](CCC4=CC(=O)CC[C@@H]43)[C@@H]1CC[C@@H]2OC(=O)CCc1ccccc1 | inconclusive: 2640 nM [rising, partial curve] | –
CC(=O)OCC1=C(C(=O)O)N2C(=O)[C@@H](N)[C@@H]2SC1 | inactive | –
C=CCON=C(C[C@H]1O[C@@H]2O[C@]3(C)CC[C@@H]4[C@H](C)CC[C@@H]([C@H]1C)[C@@]24OO3)[C@H]1O[C@@H]2O[C@]3(C)CC[C@H]4[C@H](C)CC[C@@H]([C@@H]1C)[C@@]24OO3 | active: 418 nM | –
COC(=O)C1=CCCN(C)C1 | inconclusive: 1 nM | –
CC(O)(CS(=O)(=O)c1ccc(F)cc1)C(=O)Nc1ccc(C#N)c(C(F)(F)F)c1 (stereo not given) | active: 1870 nM | –
CN(C)[C@@H]1C(=O)C(C(N)=O)=C(O)[C@@]2(O)C(=O)C3=C(O)c4c(O)cccc4[C@@](C)(O)[C@H]3C[C@@H]12 | inactive | –
N=c1c2c(-c3ccccc3)c(-c3ccccc3)n(Cc3ccccc3)c2ncn1C1CCC(O)CC1 (stereo not given) | inconclusive: 1050 nM [cytotoxic, full curve, poor fit] | –
O=[N+]([O-])c1ncc[nH]1 | inconclusive: 2.3 nM [rising, full curve, poor fit] | –
COCC1(CO)C(=O)C2CCN1CC2 (stereo not given) | active: 7430 nM | –
CC(N[C@H]1C[C@H]1c1ccccc1)c1ccc2c(c1)OCCO2 (stereo not given in full) | inactive | –

Structure (SMILES) | Potency | viability, % of DMSO control
COC[C@H]1OC(=O)c2coc3c2[C@@]1(C)C1=C(C3=O)[C@@H]2CC[C@H](O)[C@@]2(C)C[C@@H]1OC(C)=O | inconclusive: 1480 nM [cytotoxic, full curve] | –
C#CCN(C)[C@H](C)Cc1ccccc1 | inactive | –
CC(O)=C(C#N)C(=O)Nc1cc(Br)ccc1Br | inconclusive: 3.7 nM [cytotoxic, full curve, poor fit] | –
CCOP(=O)(OCC)C(C)NC(=O)N(CCCl)N=O (stereo not given) | inactive | –
C=C[C@@H]1CN2CCC1C[C@H]2[C@H](O)c1ccnc2ccccc12 (stereo not given in full) | inconclusive: 33200 nM [cytotoxic, single point] | –
C[C@@H]1O[C@@H](O[C@H]2C[C@@H](O)[C@]3(CO)[C@H]4[C@H](O)C[C@]5(C)[C@@H](C6=CC(=O)OC6)CC[C@]5(O)[C@@H]4CC[C@]3(O)C2)[C@H](O)[C@H](O)[C@H]1O | active: 37.2 nM | –
COc1ccc(CC2NCCc3cc(OC)c(OC)cc32)cc1OC (stereo not given) | inconclusive: 10500 nM [rising, full curve, poor fit] | –
Cc1c(C(=O)Nc2cccc(C(F)(F)F)c2)cc(-c2ccccc2)n1CCCN1CCOCC1 | inconclusive: 13200 nM [cytotoxic, partial curve] | –
C[C@@H]1[C@@H](CC(C[C@H]2O[C@@H]3O[C@]4(C)CC[C@@H]5[C@H](C)CC[C@@H]([C@H]2C)[C@@]35OO4)C[S+](=O)([O-])c2ccc(COC(=O)N(C)C)cc2)O[C@@H]2O[C@]3(C)CC[C@H]4[C@H](C)CC[C@@H]1[C@@]24OO3 (stereo not given in full) | inconclusive: 264 nM [cytotoxic, full curve] | –
Cc1cccc(C)c1NC(=O)CN1CCCC1=O | inactive | –
C[C@@H]1C[C@@H]([C@H](O)CC2CC(=O)NC(=O)C2)C(=O)[C@@H](C)C1 | active: 372 nM | –
CC(C)C[C@H](CN)CC(=O)O | inactive | –
C[C@@]12OC(=O)[C@]1([C@@H](O)[C@@H]1C=CCCC1)NC(=O)[C@H]2CCCl | – | inconclusive: 3.71% [cytotoxic]
COc1ccc2c(c1OC)CN1CCc3cc4c(cc3C1C2)OCO4 (stereo not given) | inconclusive: 33.2 nM [rising, full curve, poor fit] | –
COc1ccc(N(C(=O)Oc2c(C)cccc2C)c2ccnc(Nc3ccc(N4CCN(C)CC4)cc3)n2)c(OC)c1 | inconclusive: 3320 nM [cytotoxic, full curve, poor fit] | –
C[C@]12CCC(=O)C=C1CC[C@@H]1[C@H]3CC[C@](C)(O)[C@@]3(C)CC[C@@H]12 | inconclusive: 38200 nM [cytotoxic, partial curve, poor fit] | –
O=c1[nH]c2ccccc2n1CCCN1CCC(n2c(=O)[nH]c3cc(Cl)ccc32)CC1 | inactive | –
c1cc2c(cc1[C@H]1OC[C@H]3[C@H]1CO[C@H]3c1ccc3c(c1)OCO3)OCO2 | inconclusive: 23500 nM [rising, partial curve] | –
C#CC1(O)CCC2C3CCC4=CC(=O)CCC4(C)C3CCC21C (stereo not given) | inactive | –
CN1[C@H]2CC(O)C[C@H]1[C@H]1O[C@H]12 (stereo not given in full) | active: 14800 nM | –

In the list so far, two have a COOH group.
Structure (SMILES) | Potency | viability, % of DMSO control
CC(=O)OCC1=C(C(=O)O)N2C(=O)[C@@H](N)[C@@H]2SC1 | inactive | –
CC(C)C[C@H](CN)CC(=O)O | inactive | –
